Experimental data: article doi:10.1101/2025.10.03.677101
These are yes or no findings as the source states them, for the method shown. Binding seen in cells or lysates may run through a third protein. Some entries that bind do so weakly or less than the wild type. Where a sequence is shown, tags or fusion partners need not be part of it.

Tests used:
[1] = target: T1, FLAG-tagged IFNLR1 variant 1 (full-length canonical interferon lambda receptor 1) (UniProt Q8IU57); assay: proximity ligation; IFNL3 (100 ng/ml, 15 min) added to dox-uninduced HEK293T cells expressing the FLAG-tagged variant; ligand binding read from the IFNL3-dependent FLAG/IL10RB PLA signal, IFNL3 itself not detected; only the binder purified
T1 sequence: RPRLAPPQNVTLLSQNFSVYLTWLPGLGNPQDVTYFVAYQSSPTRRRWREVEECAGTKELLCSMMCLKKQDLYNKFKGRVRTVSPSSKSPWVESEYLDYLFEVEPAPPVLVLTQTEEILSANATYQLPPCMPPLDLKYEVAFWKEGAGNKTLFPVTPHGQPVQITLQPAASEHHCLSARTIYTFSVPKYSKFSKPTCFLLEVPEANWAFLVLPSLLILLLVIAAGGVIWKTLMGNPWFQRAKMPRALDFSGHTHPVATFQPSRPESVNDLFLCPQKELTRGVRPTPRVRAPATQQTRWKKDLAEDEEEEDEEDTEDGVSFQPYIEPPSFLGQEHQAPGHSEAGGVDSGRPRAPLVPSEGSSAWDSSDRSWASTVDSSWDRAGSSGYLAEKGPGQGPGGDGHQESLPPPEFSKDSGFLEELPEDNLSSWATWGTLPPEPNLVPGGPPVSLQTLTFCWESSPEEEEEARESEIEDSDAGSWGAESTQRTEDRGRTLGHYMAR

[2] = target: T2, FLAG-tagged IFNLR1 variant 2 (noncanonical variant missing part of the Box1 and Box2 JAK1-interacting motifs) (UniProt Q8IU57); assay: as above
T2 sequence: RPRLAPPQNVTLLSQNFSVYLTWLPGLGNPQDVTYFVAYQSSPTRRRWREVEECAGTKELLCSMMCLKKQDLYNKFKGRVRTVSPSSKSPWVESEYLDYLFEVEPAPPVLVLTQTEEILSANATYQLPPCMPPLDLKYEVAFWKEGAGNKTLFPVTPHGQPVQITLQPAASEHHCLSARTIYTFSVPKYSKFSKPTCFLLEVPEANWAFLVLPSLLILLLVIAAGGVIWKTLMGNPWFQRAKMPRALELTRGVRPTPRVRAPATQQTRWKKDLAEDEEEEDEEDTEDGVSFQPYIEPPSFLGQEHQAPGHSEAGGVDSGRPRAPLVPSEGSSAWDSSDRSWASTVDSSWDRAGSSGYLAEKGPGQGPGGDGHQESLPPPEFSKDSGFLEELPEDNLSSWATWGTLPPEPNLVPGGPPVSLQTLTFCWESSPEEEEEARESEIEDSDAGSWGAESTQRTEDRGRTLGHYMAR

B1: IFNL3 (lambda interferon 3) (ligand, UniProt Q8IZI9 22-196)
chain: VPVARLRGALPDARGCHIAQFKSLSPQELQAFKRAKDALEESLLLKDCKCRSRLFPRTWDLRQLQVRERPVALEAELALTLKVLEATADTDPALGDVLDQPLHTLHHILSQLRACIQPQPTAGPRTRGRLHHWLHRLQEAPKKESPGCLEASVTFNLFRLLTRDLNCVASGDLCV
For B1, the binding [1] was “binds” and the binding [2] was “binds”.
